The test deals with human TTLL11 (hTTLL11), full-length (human) (UniProt Q8NHH1). The experiment in a line: SEC; Superose 6 Increase 10/300 GL; 50 mM tris-HCl pH 8, 140 mM NaCl, 10 mM KCl, 1 mM EDTA, 0.5 mM TCEP, 5% glycerol; both purified. (In general: SEC sorts molecules by how far they enter the pores of the column.)

Results are given in words; binding and its absence hold for the method and conditions named.

B1: human TTLL11 (hTTLL11), full-length (enzyme, UniProt Q8NHH1 1-710)
chain: MRRGSSESELAARWEAEAVAAAKAAAKAEAEATAETVAEQVRVDAGAAGEPECKAGEEQPKVLAPAPAQPSAAEEGNTQVLQRPPPTLPPSKPKPVQGLCPHGKPRDKGRSCKRSSGHGSGENGSQRPVTVDSSKARTSLDALKISIRQLKWKEFPFGRRLPCDIYWHGVSFHDNDIFSGQVNKFPGMTEMVRKITLSRAVRTMQNLFPEEYNFYPRSWILPDEFQLFVAQVQMVKDDDPSWKPTFIVKPDGGCQGDGIYLIKDPSDIRLAGTLQSRPAVVQEYICKPLLIDKLKFDIRLYVLLKSLDPLEIYIAKDGLSRFCTEPYQEPTPKNLHRIFMHLTNYSLNIHSGNFIHSDSASTGSKRTFSSILCRLSSKGVDIKKVWSDIISVVIKTVIALTPELKVFYQSDIPTGRPGPTCFQILGFDILLMKNLKPILLEVNANPSMRIEHEHELSPGVFENVPSLVDEEVKVAVIRDTLRLMDPLKKKRENQSQQLEKPFAGKEDALDGELTSAPDCNANPEAHLPSICLKQVFPKYAKQFNYLRLVDRMANLFIRFLGIKGTMKLGPTGFRTFIRSCKLSSSSLSMAAVDILYIDITRRWNSMTLDQRDSGMCLQAFVEAFFFLAQRKFKMLPLHEQVASLIDLCEYHLSLLDEKRLVCGRGVPSGGRPPHRGPPQEPSPSAQPAGDNPPPRTSCANKLSHPRHTLS
modifications: Janelia Fluor 549-HALO probe on the HALO tag (TIRF assay)
B1: the binding result is given as “no binding”.

The record behind these values is article PMC12366701.
